Results are given in words; binding and its absence hold for the method and conditions named. Binding can be weak; no strength is given.
Tests used:
[1] = target: thyroid hormone receptor TRα (UniProt P63059); test: gel retardation, 32P palindromic TRE, in vitro translated receptors
[2] = target: thyroid hormone receptor TRα (UniProt P63059); test: gel retardation, 32P palindromic TRE
[3] = target: thyroid hormone receptor TRα (UniProt P63059); test: gel retardation with different 32P response elements
[4] = target: thyroid hormone receptor TRα (UniProt P63059); test: gel retardation, 32P palindromic TRE, with or without T3 (10^-7 M)
FLAG-TRα = FLAG-TRα (UniProt P63059); test: gel retardation, 32P palindromic TRE, in vitro translated receptors

Chains of the proteins cited; added tags and fusions are not shown. Lines headed by an entry give the natural chain unless they say otherwise; changes in a name come on top.
UniProt P63059: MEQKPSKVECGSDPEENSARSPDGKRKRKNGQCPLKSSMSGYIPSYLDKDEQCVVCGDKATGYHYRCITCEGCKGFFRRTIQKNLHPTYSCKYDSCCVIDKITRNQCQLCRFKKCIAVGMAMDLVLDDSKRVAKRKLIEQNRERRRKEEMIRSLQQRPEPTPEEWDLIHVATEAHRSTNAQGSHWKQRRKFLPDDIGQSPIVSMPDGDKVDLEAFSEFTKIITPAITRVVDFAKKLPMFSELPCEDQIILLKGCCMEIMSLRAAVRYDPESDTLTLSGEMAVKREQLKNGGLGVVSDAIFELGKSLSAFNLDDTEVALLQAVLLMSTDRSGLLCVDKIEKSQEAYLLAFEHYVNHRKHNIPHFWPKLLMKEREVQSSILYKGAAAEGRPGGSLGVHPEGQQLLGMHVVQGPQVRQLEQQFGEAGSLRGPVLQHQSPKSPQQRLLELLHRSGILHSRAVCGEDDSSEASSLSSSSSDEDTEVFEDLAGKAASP
UniProt P03372: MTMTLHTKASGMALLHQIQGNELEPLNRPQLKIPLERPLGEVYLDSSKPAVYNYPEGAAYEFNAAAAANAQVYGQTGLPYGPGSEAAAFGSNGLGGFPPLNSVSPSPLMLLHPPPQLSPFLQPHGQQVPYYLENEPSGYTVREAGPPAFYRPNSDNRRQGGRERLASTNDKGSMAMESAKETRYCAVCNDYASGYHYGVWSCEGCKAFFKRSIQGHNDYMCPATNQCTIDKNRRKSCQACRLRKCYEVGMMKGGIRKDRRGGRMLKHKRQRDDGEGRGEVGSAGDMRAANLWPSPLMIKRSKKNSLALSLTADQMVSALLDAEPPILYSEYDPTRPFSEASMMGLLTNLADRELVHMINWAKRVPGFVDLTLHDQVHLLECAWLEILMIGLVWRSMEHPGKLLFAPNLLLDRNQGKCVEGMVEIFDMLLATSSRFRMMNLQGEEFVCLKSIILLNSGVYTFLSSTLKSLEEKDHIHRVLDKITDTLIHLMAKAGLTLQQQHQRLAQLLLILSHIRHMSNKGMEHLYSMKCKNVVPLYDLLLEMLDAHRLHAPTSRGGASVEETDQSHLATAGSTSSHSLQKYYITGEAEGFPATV
UniProt P10276: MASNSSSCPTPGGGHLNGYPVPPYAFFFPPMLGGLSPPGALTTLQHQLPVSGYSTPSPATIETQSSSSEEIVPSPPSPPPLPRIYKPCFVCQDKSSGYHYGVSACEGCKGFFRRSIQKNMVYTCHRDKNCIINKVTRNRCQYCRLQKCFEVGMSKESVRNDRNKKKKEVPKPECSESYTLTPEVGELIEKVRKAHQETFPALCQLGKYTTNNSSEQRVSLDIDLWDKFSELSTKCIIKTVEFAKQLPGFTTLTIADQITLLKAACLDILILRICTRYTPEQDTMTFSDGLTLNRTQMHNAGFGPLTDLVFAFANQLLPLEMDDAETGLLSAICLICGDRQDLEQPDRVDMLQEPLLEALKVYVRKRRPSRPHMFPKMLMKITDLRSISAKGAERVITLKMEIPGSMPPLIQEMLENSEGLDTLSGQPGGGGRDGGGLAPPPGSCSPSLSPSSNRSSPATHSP

Molecule	binding [1]	binding [2]	binding [3]	binding [4]	binding (FLAG-TRα)
estrogen receptor (ER) (from UniProt P03372 1-595)	no binding				
retinoic acid receptor RARα (from UniProt P10276 1-462)	no binding				
RXRαm3 (receptor, human, UniProt P19793 28-462, looked up, range 28-C-terminus) MAAPSLHPSLGPGIGSPGQLHSPISTLSSPINGMGPPFSVISSPMGPHSMSVPTTPTLGFSTGSPQLSSPMNPVSSSEDIKPPLGLNGVLKVPAHPSGNMASFTKHICAICGDRSSGKHYGVYSCEGCKGFFKRTVRKDLTYTCRDNKDCLIDKRQRNRCQYCRYQKCLAMGMKREAVQEERQRGKDRNENEVESTSSANEDMPVERILEAELAVEPKTETYVEANMGLNPSSPNDPVTNICQAADKQLFTLVEWAKRIPHFSELPLDDQVILLRAGWNELLIASFSHRSIAVKDGILLATGLHVHRNSAHSAGVGAIFDRVLTELVSKMRDMQMDKTELGCLRAIVLFNPDSKGLSNPAEVEALREKVYASLEAYCKHKYPEQPGRFAKLLLRLPALRSIGLKCLEHLFFFKLIGDTPIDTFLMEMLEAPHQMT	binds	binds			

Continued, values first:

binding [1]	binding [2]	binding [3]	binding [4]	binding (FLAG-TRα)	Molecule
binds					FLAG-RXRα (from UniProt P19793 1-462) (receptor)
binds	binds	binds	binds	binds	retinoid x receptor (RXRα) (from UniProt P19793 1-462)
binds	binds				RXRαm4 (receptor, human, UniProt P19793 61-462, looked up, range 61-462; 35S-labelled in the column experiment; also called mutant RXRαm4) MGPPFSVISSPMGPHSMSVPTTPTLGFSTGSPQLSSPMNPVSSSEDIKPPLGLNGVLKVPAHPSGNMASFTKHICAICGDRSSGKHYGVYSCEGCKGFFKRTVRKDLTYTCRDNKDCLIDKRQRNRCQYCRYQKCLAMGMKREAVQEERQRGKDRNENEVESTSSANEDMPVERILEAELAVEPKTETYVEANMGLNPSSPNDPVTNICQAADKQLFTLVEWAKRIPHFSELPLDDQVILLRAGWNELLIASFSHRSIAVKDGILLATGLHVHRNSAHSAGVGAIFDRVLTELVSKMRDMQMDKTELGCLRAIVLFNPDSKGLSNPAEVEALREKVYASLEAYCKHKYPEQPGRFAKLLLRLPALRSIGLKCLEHLFFFKLIGDTPIDTFLMEMLEAPHQMT
no binding					RXRαm5 (receptor, human, UniProt P19793 198-462, looked up) MGMKREAVQEERQRGKDRNENEVESTSSANEDMPVERILEAELAVEPKTETYVEANMGLNPSSPNDPVTNICQAADKQLFTLVEWAKRIPHFSELPLDDQVILLRAGWNELLIASFSHRSIAVKDGILLATGLHVHRNSAHSAGVGAIFDRVLTELVSKMRDMQMDKTELGCLRAIVLFNPDSKGLSNPAEVEALREKVYASLEAYCKHKYPEQPGRFAKLLLRLPALRSIGLKCLEHLFFFKLIGDTPIDTFLMEMLEAPHQMT
no binding					RXRαm6 (receptor, human, UniProt P19793 1-462, looked up, In vitro translated deletion mutant) MDTKHFLPLDFSTQVNSSLTSPTGRGSMGMKREAVQEERQRGKDRNENEVESTSSANEDMPVERILEAELAVEPKTETYVEANMGLNPSSPNDPVTNICQAADKQLFTLVEWAKRIPHFSELPLDDQVILLRAGWNELLIASFSHRSIAVKDGILLATGLHVHRNSAHSAGVGAIFDRVLTELVSKMRDMQMDKTELGCLRAIVLFNPDSKGLSNPAEVEALREKVYASLEAYCKHKYPEQPGRFAKLLLRLPALRSIGLKCLEHLFFFKLIGDTPIDTFLMEMLEAPHQMT

From patent publication US7098310B1, “Heterodimers of retinoid X receptors (RXRS) and other steroid hormone receptors” (Ligand Pharmaceuticals, priority 1991, dated 2006)
